Laboratory results as given in paper PMC5851652.
No constants are given. Whether binding was seen depends on the method and setting. In cells and extracts the contact can be indirect. A result given as binding can be weak or reduced; the word gives no strength. Sequences can lack the tags named with a protein.

How the values were obtained:
human OASL-V5 WT (human) = target: T1, human OASL-V5 WT (human) (UniProt Q15646); assay: co-IP; anti-V5 immunoprecipitation of RIPA lysates of co-transfected 293T cells; immunoblot with anti-GFP and anti-V5
T1 sequence: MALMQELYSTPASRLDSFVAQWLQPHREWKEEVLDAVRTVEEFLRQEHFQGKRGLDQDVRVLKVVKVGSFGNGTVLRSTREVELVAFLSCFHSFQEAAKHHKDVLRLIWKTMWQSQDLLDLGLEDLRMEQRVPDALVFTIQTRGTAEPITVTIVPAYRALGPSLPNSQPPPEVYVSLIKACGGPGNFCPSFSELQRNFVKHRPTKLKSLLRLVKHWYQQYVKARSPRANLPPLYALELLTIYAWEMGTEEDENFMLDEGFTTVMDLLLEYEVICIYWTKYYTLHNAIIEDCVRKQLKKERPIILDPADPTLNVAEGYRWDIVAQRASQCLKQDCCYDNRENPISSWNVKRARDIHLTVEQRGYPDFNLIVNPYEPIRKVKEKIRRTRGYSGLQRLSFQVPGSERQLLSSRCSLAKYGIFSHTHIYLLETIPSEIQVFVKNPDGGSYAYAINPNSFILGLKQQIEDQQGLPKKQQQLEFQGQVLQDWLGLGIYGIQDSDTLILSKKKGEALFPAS

[1] = target: MCMV M76-myc (murine cytomegalovirus (MCMV), Smith strain); assay: co-IP; anti-myc immunoprecipitation of RIPA lysates of co-transfected 293T cells; immunoblot with anti-V5 and anti-myc
[2] = target: KSHV ORF20A-myc (Kaposi's sarcoma-associated herpesvirus (KSHV)); assay: as above
[3] = target: KSHV ORF20B-myc (Kaposi's sarcoma-associated herpesvirus (KSHV)); assay: as above
[4] = target: HCMV UL76-myc (human cytomegalovirus (HCMV), Merlin); assay: as above
[5] = target: ORF20WT-myc-GFP (Kaposi's sarcoma-associated herpesvirus (KSHV)); assay: co-IP; anti-GFP immunoprecipitation of RIPA lysates of co-transfected 293T cells; immunoblot with anti-V5 and anti-GFP

Molecule: ORF20WT-myc-GFP
- binding (human OASL-V5 WT (human)): binds

B1: human OASL-V5 WT (protein, UniProt Q15646 1-514)
chain: T1 sequence
- binding [1]: binds
- binding [2]: binds
- binding [3]: binds
- binding [4]: binds weakly
- binding [5]: binds
